Out of some 300,000 compounds screened, about 5,400 (1.8%) were called active. This list was built around the results that the source calls inconclusive (neither active nor inactive); the mix of calls is not that of the screen. Calls follow the shape of the full dose curve; tested in HEK293 cells. Potencies beside an inconclusive call are fits to weak or partial responses and may not hold up.
test: qHTS for inhibitors of binding or entry into cells for Marburg Virus; details: Marburg virus pseudotyped entry inhibition, cell reporter; series mostly up to 37.8 µM
Potency is read from the fitted curve at half-maximal effect.

Compound	Potency
CCN(CCCNC(=O)c1cc2c(-c3cccc(OC)c3)nn(C)c2s1)Cc1ccccc1	inconclusive: 7.08 µM [inhibitor, partial curve, poor fit]
COc1ccc(Nc2c(-c3ccsc3)nc3nc(C)cc(C)n23)cc1	inactive
Cc1cc(C(=O)Nc2nc3c(s2)CCCC3)no1	inconclusive: 29.1 µM [inhibitor, single point]
CCOC(=O)c1sc2ncn(CC(=O)NCC3CCCO3)c(=O)c2c1C (stereo not drawn)	inconclusive: 1.58 µM [inhibitor, partial curve, poor fit]
Nc1c2c(nc3ccccc13)CSCC2	inconclusive: 4.47 µM [inhibitor, full curve]
Cc1cc(C)c2sc(N(CCCN(C)C)C(=O)c3ccc(S(=O)(=O)N(C)Cc4ccccc4)cc3)nc2c1	inconclusive: 25.1 µM [inhibitor, partial curve, poor fit]
CCOC(=O)Cn1c(=O)oc2cc(S(=O)(=O)N3CCN(c4ccc(F)cc4)CC3)ccc21	inactive
Clc1ccccc1C1CC(c2ccccc2)=Nc2ccccc2N1 (stereo not drawn)	inconclusive: 11.2 µM [inhibitor, partial curve, poor fit]
COc1cc(CN(C)CCc2ccccc2)ccc1OCc1ccccc1	active: 18.3 µM
Cc1cccc(C)c1OC(=O)CSc1nnc(-c2ccc3c(c2)OCO3)o1	inconclusive: 35.5 µM [inhibitor, single point]
O=C(c1cccc(C(=O)N2CCN(c3ccccc3)CC2)c1)N1CCN(c2ccccc2)CC1	inconclusive: 10.3 µM [inhibitor, partial curve, poor fit]
O=C(Nc1ccnn1C1CCN(Cc2cccnc2)CC1)c1ccccc1Cl	inactive
Cc1cc(NC(=O)C(C)SCC(=O)Nc2ccccc2OC(F)F)no1 (stereo not drawn)	inactive
COc1ccccc1OCC(=O)Nc1ccc(S(=O)(=O)N2CCCC2)cc1	inactive
CCCCCCCSc1nnc(N)s1	inconclusive: 6.31 µM [inhibitor, single point]
O=C(NCc1ccco1)C1CCCN(S(=O)(=O)c2ccc(Br)cc2)C1 (stereo not drawn)	inactive
Cc1ccc(N(C(C)C(=O)Nc2cc(Cl)ccc2Oc2ccccc2)S(C)(=O)=O)cc1 (stereo not drawn)	inconclusive: 29.1 µM [inhibitor, single point]
C[n+]1c(-c2ccccc2)cc(-c2ccc(Cl)cc2)cc1-c1ccccc1	inconclusive: 9.2 µM [inhibitor, partial curve]
Cc1cc(C)c(NC(=O)C2CCC(=O)N2)c(C)c1 (stereo not drawn)	inactive
CC1CCc2nc(NC(=O)CN3CCN(c4ccccc4)CC3)sc2C1 (stereo not drawn)	inactive
COc1ccc(Cl)cc1NC(=O)C(C)N(C)Cc1ccc(C(F)(F)F)cc1 (stereo not drawn)	inconclusive: 35.5 µM [inhibitor, single point]
CCOC(=O)/C(C#N)=C1/C=CN(c2ccccc2)C=N1	inconclusive: 10 µM [activator, single point]

Compounds listed so far containing a Cl atom, in the order listed:
Compound	Potency
Clc1ccccc1C1CC(c2ccccc2)=Nc2ccccc2N1 (stereo not drawn)	inconclusive: 11.2 µM [inhibitor, partial curve, poor fit]
O=C(Nc1ccnn1C1CCN(Cc2cccnc2)CC1)c1ccccc1Cl	inactive
Cc1ccc(N(C(C)C(=O)Nc2cc(Cl)ccc2Oc2ccccc2)S(C)(=O)=O)cc1 (stereo not drawn)	inconclusive: 29.1 µM [inhibitor, single point]
C[n+]1c(-c2ccccc2)cc(-c2ccc(Cl)cc2)cc1-c1ccccc1	inconclusive: 9.2 µM [inhibitor, partial curve]
COc1ccc(Cl)cc1NC(=O)C(C)N(C)Cc1ccc(C(F)(F)F)cc1 (stereo not drawn)	inconclusive: 35.5 µM [inhibitor, single point]

Additional entries follow:

Compound	Potency
Cn1cccc1C(=O)OCC(=O)c1cc2ccccc2o1	inconclusive: 23.1 µM [activator, single point]
COc1ccccc1CNC(=O)C1CCN(c2nnc(C)c3c(C)n(-c4ccccc4)nc23)CC1	inconclusive: 6.31 µM [inhibitor, full curve, poor fit]
Cc1ccc(-n2c(N)cc(=O)nc2SCC(=O)NC2CCCCC2)cc1C	inconclusive: 3.55 µM [inhibitor, partial curve, poor fit]
NC(=O)C1CCN(C(=O)CCSc2ccccc2)CC1	inactive
COc1ccc(-c2nc(C#N)c(NCCc3ccccc3)o2)cc1OC	inactive
Cn1cccc1-c1cc(C(=O)N/N=C/C=C/c2ccccc2)[nH]n1	inconclusive: 1.64 µM [inhibitor, partial curve, poor fit]
Cc1nn(-c2ccc(F)cc2)c2sc(C(=O)OCC(=O)N3CCC(C)CC3)cc12	inconclusive: 18.3 µM [inhibitor, single point]
COC(=O)NCc1cc2cc(Cl)ccc2[nH]1	inconclusive: 14.6 µM [inhibitor, single point]
CC1(NC(=O)Cn2cc(C(F)(F)F)ccc2=O)CCS(=O)(=O)C1 (stereo not drawn)	inconclusive: 0.112 µM [inhibitor, full curve, poor fit]
CCCCN(C)C(=O)c1nc2ccccn2c1CN1CCN(C/C=C/c2ccccc2)CC1	inconclusive: 7.08 µM [inhibitor, partial curve, poor fit]
CC(C)(C)N(Cc1ccc2c(c1)OCO2)C(=O)/C=C\S(=O)c1ccccc1 (stereo not drawn)	inconclusive: 11.2 µM [inhibitor, partial curve]
COc1ccc2oc(=O)c(-c3nnc(N)s3)cc2c1	inconclusive: 11.2 µM [activator, partial curve, poor fit]
Cc1cc(C)n(CCNC(=O)c2cc(COc3ccc(F)cc3Cl)on2)n1	inactive
Cc1ccc2[nH]c(=O)cc(C(=O)OCC(=O)c3ccc(F)cc3)c2c1	inconclusive: 0.316 µM [inhibitor, full curve, poor fit]
CCCCCC(=O)N1C[C@@H](O)[C@H](n2cc(C3CC3)nn2)C[C@H]1c1ccc(Cl)cc1	inconclusive: 15.8 µM [inhibitor, partial curve, poor fit]
CCOc1ccc(-c2nnn(CC(=O)NCc3ccccc3)n2)cc1	inconclusive: 1.12 µM [inhibitor, full curve, poor fit]
COc1ccc([N+](=O)[O-])cc1N(CC(=O)Nc1ccccc1C(=O)N1CCOCC1)S(C)(=O)=O	inconclusive: 2.82 µM [activator, full curve]
Cc1cccc(NCC(O)Cn2cnc3c2c(=O)n(C)c(=O)n3C)c1 (stereo not drawn)	inconclusive: 3.16 µM [activator, partial curve, poor fit]
O=C(CNS(=O)(=O)c1ccccc1)N1CCc2ccccc2C1	inactive
Cc1nc(Sc2nnnn2C)c2c3c(sc2n1)CCC3	inconclusive: 1.78 µM [inhibitor, partial curve, poor fit]
COc1ccccc1N(CC(=O)Nc1ccccc1)S(=O)(=O)c1cccs1	inconclusive: 0.316 µM [inhibitor, partial curve, poor fit]

— PubChem BioAssay AID540276 (National Center for Advancing Translational Sciences (NCATS), 2011)
